Data reported in the supplement of paper PMC10849652.
The other results are listed elsewhere or left out.

Amino acid sequences for entries named in this document (tags omitted). A change or cut given only in a name is not applied to a line headed by its entry.
UniProt Q99459: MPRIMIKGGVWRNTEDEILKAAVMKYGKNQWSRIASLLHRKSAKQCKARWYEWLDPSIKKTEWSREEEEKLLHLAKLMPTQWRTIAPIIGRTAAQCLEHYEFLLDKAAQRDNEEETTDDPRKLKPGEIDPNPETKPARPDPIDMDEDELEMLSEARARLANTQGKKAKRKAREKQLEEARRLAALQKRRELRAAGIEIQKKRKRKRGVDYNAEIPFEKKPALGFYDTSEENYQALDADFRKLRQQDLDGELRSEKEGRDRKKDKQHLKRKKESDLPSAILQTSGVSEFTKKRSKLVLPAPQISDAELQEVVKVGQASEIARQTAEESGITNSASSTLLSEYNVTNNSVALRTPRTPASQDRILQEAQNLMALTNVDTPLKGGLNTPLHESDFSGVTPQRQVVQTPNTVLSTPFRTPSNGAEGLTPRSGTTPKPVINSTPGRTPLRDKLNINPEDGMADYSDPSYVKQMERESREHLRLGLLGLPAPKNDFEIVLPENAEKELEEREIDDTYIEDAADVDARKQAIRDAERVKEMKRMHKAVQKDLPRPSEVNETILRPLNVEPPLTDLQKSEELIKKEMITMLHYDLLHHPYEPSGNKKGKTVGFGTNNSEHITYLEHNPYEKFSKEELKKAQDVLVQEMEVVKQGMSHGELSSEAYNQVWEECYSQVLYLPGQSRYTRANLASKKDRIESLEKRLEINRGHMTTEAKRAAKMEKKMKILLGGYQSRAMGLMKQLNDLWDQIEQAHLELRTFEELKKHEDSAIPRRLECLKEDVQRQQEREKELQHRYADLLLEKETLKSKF
UniProt Q66GS9: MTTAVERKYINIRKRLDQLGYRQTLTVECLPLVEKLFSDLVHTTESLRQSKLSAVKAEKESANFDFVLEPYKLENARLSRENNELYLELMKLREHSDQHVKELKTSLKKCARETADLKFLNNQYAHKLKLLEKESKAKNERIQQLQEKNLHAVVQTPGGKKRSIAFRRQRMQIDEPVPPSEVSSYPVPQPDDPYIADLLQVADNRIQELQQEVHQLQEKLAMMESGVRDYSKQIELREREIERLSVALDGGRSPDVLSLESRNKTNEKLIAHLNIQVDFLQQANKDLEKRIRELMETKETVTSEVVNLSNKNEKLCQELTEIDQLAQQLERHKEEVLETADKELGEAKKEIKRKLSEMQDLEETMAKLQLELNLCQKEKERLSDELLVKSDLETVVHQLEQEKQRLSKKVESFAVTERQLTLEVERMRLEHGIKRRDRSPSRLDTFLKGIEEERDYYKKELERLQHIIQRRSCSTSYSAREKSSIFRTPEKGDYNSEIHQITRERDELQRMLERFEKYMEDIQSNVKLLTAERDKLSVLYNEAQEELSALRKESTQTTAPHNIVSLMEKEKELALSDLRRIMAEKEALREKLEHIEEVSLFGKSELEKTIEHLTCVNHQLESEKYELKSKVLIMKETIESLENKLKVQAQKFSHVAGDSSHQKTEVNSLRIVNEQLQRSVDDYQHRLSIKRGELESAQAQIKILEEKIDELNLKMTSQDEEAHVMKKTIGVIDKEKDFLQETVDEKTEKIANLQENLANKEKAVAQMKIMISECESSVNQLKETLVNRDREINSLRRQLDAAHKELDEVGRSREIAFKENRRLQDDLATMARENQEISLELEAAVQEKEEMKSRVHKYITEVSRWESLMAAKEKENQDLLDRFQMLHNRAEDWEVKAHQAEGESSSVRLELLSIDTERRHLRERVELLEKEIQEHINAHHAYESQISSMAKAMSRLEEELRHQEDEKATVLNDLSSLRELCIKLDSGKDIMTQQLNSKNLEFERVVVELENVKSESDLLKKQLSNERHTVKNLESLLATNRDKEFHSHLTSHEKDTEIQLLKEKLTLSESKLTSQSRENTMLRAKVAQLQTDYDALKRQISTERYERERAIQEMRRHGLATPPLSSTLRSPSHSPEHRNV
UniProt P11802: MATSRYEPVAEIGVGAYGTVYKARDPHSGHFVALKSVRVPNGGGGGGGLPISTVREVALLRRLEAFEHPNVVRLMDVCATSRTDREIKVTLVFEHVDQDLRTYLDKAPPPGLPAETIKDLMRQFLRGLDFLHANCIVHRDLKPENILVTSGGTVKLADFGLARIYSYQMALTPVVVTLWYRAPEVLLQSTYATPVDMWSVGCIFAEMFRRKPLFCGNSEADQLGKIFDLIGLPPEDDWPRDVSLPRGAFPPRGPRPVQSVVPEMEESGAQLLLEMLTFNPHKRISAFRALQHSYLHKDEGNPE
UniProt Q86XR8: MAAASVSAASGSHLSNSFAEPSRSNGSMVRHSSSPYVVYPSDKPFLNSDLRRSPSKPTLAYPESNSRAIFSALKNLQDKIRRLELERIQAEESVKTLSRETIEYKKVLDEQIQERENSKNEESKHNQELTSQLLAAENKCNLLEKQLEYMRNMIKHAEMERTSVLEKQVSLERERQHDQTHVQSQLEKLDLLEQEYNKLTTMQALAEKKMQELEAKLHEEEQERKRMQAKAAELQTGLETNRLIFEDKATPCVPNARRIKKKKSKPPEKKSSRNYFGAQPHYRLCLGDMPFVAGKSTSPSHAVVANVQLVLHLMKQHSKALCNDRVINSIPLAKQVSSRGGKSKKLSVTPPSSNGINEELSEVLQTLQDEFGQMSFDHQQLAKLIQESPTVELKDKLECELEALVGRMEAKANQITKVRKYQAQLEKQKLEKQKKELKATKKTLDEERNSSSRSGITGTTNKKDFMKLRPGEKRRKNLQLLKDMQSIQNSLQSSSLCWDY
UniProt Q71F23: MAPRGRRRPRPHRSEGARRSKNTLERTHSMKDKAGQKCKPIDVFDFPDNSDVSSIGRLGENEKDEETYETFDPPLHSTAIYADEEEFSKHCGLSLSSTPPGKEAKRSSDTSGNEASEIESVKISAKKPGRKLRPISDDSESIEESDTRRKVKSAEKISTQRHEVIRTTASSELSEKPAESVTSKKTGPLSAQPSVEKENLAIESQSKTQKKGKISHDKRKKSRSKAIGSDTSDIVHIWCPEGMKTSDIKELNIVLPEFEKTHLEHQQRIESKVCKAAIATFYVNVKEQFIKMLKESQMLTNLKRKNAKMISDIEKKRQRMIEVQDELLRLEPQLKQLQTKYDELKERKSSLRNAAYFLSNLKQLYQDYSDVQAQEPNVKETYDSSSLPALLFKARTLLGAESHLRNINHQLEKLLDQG
UniProt P49918: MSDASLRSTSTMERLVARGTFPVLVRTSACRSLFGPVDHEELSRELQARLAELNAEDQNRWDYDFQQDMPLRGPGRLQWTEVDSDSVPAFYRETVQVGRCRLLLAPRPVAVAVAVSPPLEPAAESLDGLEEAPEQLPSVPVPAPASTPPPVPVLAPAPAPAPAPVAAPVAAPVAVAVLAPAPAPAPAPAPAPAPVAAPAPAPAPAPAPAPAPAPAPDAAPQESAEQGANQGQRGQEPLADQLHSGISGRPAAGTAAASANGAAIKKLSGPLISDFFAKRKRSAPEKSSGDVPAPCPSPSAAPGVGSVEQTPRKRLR
UniProt Q9HC77: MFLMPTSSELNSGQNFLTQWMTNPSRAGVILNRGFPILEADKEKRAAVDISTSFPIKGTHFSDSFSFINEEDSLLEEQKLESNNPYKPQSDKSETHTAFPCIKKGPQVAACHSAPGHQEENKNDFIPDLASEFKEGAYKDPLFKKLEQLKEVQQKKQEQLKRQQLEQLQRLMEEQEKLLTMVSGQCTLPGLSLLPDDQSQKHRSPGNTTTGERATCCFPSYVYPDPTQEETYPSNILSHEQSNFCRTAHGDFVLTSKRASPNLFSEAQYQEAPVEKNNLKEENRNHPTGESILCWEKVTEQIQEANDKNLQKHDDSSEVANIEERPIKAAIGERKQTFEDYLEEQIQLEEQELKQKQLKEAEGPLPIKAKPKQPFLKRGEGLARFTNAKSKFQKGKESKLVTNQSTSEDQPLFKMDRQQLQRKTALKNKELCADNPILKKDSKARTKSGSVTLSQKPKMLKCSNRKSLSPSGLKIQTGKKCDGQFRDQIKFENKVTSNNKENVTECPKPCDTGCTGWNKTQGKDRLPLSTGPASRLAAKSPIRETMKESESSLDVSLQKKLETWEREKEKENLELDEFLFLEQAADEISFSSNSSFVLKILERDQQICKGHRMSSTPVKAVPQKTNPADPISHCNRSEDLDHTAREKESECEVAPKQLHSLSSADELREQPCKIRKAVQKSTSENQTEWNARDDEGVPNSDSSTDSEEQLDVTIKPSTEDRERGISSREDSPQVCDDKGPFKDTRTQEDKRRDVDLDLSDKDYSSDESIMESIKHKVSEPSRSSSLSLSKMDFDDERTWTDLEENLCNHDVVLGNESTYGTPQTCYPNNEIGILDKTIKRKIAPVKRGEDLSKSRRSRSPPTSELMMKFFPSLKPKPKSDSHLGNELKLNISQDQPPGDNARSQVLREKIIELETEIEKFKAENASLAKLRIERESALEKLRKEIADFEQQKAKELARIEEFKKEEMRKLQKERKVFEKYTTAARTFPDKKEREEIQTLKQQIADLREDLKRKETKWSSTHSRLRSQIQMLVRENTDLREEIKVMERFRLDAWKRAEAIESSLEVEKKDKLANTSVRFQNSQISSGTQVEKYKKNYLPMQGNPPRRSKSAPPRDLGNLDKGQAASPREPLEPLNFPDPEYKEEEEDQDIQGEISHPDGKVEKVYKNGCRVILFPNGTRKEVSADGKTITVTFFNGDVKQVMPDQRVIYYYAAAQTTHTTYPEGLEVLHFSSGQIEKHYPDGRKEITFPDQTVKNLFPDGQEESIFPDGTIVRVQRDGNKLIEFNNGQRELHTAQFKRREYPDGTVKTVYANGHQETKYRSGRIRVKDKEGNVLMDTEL
UniProt Q8N2Z9: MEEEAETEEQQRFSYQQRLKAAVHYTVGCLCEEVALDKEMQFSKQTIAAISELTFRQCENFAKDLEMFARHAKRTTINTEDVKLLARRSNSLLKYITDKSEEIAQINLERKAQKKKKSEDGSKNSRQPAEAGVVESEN
UniProt Q5VV42: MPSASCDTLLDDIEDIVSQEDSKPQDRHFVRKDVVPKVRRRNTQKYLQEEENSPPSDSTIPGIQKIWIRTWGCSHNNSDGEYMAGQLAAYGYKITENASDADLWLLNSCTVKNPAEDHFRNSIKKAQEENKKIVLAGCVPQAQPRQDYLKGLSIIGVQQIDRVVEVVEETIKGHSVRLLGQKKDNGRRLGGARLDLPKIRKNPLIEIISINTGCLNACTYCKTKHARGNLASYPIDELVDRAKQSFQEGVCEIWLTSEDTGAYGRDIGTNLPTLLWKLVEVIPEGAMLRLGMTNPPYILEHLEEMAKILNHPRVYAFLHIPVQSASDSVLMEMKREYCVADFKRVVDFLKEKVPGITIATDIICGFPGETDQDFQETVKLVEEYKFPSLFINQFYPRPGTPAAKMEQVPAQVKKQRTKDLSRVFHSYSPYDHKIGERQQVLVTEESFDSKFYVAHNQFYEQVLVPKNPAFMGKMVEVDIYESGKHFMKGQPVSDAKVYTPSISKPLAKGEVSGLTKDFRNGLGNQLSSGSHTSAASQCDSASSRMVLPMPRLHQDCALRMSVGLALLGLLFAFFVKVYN
UniProt Q69YH5: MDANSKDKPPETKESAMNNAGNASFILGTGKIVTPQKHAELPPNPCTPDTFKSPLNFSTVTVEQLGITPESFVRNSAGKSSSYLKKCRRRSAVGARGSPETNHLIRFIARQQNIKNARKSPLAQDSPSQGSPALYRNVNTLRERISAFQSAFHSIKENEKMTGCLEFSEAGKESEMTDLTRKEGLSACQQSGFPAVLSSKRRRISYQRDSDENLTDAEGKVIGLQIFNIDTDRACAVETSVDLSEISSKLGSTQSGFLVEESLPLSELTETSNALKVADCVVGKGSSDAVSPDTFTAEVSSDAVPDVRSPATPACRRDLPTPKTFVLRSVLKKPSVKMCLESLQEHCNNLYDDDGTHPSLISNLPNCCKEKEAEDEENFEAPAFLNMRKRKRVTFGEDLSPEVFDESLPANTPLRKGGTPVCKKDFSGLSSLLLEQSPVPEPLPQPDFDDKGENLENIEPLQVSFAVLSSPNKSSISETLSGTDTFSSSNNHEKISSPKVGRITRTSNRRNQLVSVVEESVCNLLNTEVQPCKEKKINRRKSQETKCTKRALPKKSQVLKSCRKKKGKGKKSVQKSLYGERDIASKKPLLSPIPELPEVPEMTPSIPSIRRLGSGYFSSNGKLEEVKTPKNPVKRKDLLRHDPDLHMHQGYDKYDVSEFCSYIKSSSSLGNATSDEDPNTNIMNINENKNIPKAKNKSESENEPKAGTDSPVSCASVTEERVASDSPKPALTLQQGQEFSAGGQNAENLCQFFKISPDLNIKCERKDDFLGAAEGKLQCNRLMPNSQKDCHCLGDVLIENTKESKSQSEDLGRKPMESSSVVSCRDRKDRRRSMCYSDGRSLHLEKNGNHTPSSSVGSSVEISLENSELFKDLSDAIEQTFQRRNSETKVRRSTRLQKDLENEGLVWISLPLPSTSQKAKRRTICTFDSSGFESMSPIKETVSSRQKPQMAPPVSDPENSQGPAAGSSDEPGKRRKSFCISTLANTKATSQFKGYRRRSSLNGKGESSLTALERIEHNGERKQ

Key:
Test in all cases: log2 fold change, soluble protein after heating vs DMSO (PISA); higher = thermal stabilisation; K562 cells, 10 uM, 30 min; active = over 0.2 and 3.5 SD of the protein, either way, in both replicates (recomputed)
[1] = compound: NC(=O)Nc1cc(-c2cccc(F)c2)sc1C(=O)N[C@H]1CCCNC1
Method in brief: (§1)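 K562 cells at 2×10^6 cells/mL were treated with 10 μM compound for 30 min. Aliquots were heated for 3 min across 48°C-58°C, pooled, and extracted in PBS with 0.5% NP-40 at 4°C; soluble protein was the supernatant after 21,000xg for 90 min. Soluble protein was quantified by TMTpro 16plex LC-MS/MS with channel sums equalised, and reported as log2 fold change in thermal stability against DMSO controls, with values from duplicates.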

[2] = compound: NC(=O)c1cnc(N[C@@H]2CCCC[C@@H]2N)nc1Nc1cccc(-n2nccn2)c1
Method in brief: as §1

[3] = compound: NC1(c2ccc(-c3nc4ccn5c(=O)[nH]nc5c4cc3-c3ccccc3)cc2)CCC1
Method in brief: as §1

[4] = compound: NCC(=O)Nc1ccc(-n2nc(C(F)(F)F)cc2-c2ccc3c(ccc4ccccc43)c2)cc1
Method in brief: as §1

entinostat = compound: Nc1ccccc1NC(=O)c1ccc(CNC(=O)OCc2cccnc2)cc1 [entinostat]
Method in brief: as §1

citarinostat = compound: O=C(CCCCCCNC(=O)c1cnc(N(c2ccccc2)c2ccccc2Cl)nc1)NO [citarinostat]
Method in brief: as §1

silmitasertib = compound: O=C(O)c1ccc2c(c1)nc(Nc1cccc(Cl)c1)c1ccncc12 [silmitasertib]
Method in brief: as §1

[5] = compound: O=C1NC(=O)C(c2cnc3ccccn23)=C1c1cn2c3c(cc(F)cc13)CN(C(=O)N1CCCCC1)CC2
Method in brief: as §1

[6] = compound: c1cc(OCCN2CCCCC2)cc(-c2n[nH]c3ccc(-c4nnc[nH]4)cc23)c1
Method in brief: as §1

vorinostat = compound: O=C(CCCCCCC(=O)Nc1ccccc1)NO [vorinostat]
Method in brief: as §1

Measured: log2 fold change

CDC42SE1 (UniProt Q9NRR8)
inactive: [1] -0.244 | [2] 0.055 | [3] -0.065 | [4] -0.002 | entinostat -0.042 | citarinostat -0.048 | silmitasertib 0.128 | [5] -0.065 | [6] -0.103

CEP250 (UniProt Q9BV73)
inactive: [1] -0.042 | [3] 0.028 | [4] -0.071 | entinostat -0.123 | citarinostat 0.085 | silmitasertib -0.048 | [5] 0.049 | [6] -0.329

CDC5L (UniProt Q99459)
inactive: [1] -0.193 | [2] 0.064 | [3] 0.073 | [4] -0.301 | entinostat -0.076 | vorinostat -0.001 | citarinostat -0.122 | silmitasertib 0.104 | [6] -0.098

CDK1 (UniProt P06493)
inactive: [1] -0.036 | [2] 0.004 | [3] -0.068 | [4] -0.047 | entinostat 0 | vorinostat 0.05 | citarinostat 0.051 | [5] -0.079 | [6] -0.032

CEP135 (UniProt Q66GS9)
inactive: [1] -0.113 | [2] 0.011 | entinostat 0.04 | vorinostat -0.111 | citarinostat 0.167 | [5] 0.01 | [6] 0.192

CDK2AP1 (UniProt O14519)
inactive: [1] 0.111 | [2] 0.041 | [3] -0.031 | entinostat 0.12 | vorinostat 0.158 | citarinostat -0.006 | silmitasertib -0.037 | [5] -0.008 | [6] 0.04

CEP350 (UniProt Q5VT06)
inactive: [1] -0.128 | [2] -0.153 | [3] -0.175 | entinostat 0.127 | vorinostat -0.052 | citarinostat -0.023 | silmitasertib 0.099 | [5] 0.166 | [6] -0.147

CHCHD6 (UniProt Q9BRQ6)
inactive: [1] 0.076 | [2] -0.185 | [3] -0.02 | [4] -0.019 | entinostat -0.003 | vorinostat 0.001 | silmitasertib -0.033 | [5] -0.128

CDK4 (UniProt P11802)
inactive: [1] 0.015 | [2] -0.293 | [3] -0.074 | [4] 0.02 | entinostat -0.006 | citarinostat 0.076 | silmitasertib 0.193 | [5] 0.184 | [6] 0.005

CHIC1 (UniProt Q5VXU3)
inactive: [1] -0.22 | [2] -0.088 | [3] -0.286 | entinostat -0.127 | vorinostat 0.111 | citarinostat -0.04 | silmitasertib 0.15 | [5] 0.026 | [6] -0.032

CEP57 (UniProt Q86XR8)
inactive: [1] -0.226 | [3] 0.415 | entinostat -0.111 | vorinostat 0.077 | silmitasertib 0.343

CENPH (UniProt Q9H3R5)
inactive: [1] -0.039 | [2] -0.062 | [3] -0.006 | [4] 0.006 | entinostat -0.01 | citarinostat -0.029 | silmitasertib -0.082 | [5] 0.014 | [6] -0.299

CENPU (UniProt Q71F23)
inactive: [1] 0.249 | [2] 0.133 | entinostat -0.161 | [5] 0.097

Taken from above (2 entries):
CDK4 (UniProt P11802)
inactive: [1] 0.015 | [2] -0.293 | [3] -0.074 | [4] 0.02 | entinostat -0.006 | citarinostat 0.076 | silmitasertib 0.193 | [5] 0.184 | [6] 0.005

CHIC1 (UniProt Q5VXU3)
inactive: [1] -0.22 | [2] -0.088 | [3] -0.286 | entinostat -0.127 | vorinostat 0.111 | citarinostat -0.04 | silmitasertib 0.15 | [5] 0.026 | [6] -0.032

Continued.

CHCHD7 isoform 4 (UniProt Q9BUK0)
inactive: [1] -0.019 | [2] 0.006 | [3] 0.023 | [4] 0.104 | entinostat 0.241 | vorinostat -0.063 | citarinostat 0.047 | silmitasertib -0.068 | [6] -0.101

CDKN1C (UniProt P49918)
inactive: [1] 0.094 | [3] 0.252 | entinostat -0.002 | vorinostat 0.015 | citarinostat -0.032 | silmitasertib 0.322 | [5] -0.41 | [6] 0.461

CDC45 isoform 3 (UniProt O75419)
inactive: [1] 0.179 | [2] -0.014 | entinostat 0.06 | vorinostat 0.012 | citarinostat 0.133 | [5] 0.024 | [6] -0.377

CDKN1B (UniProt P46527)
inactive: [1] -0.154 | [2] 0.178 | [3] 0.017 | [4] -0.177 | entinostat 0.046 | vorinostat -0.01 | silmitasertib -0.072 | [5] -0.01

CENPJ (UniProt Q9HC77)
inactive: [1] -0.028 | [2] 0.084 | entinostat -0.219 | [5] -0.055

CENPS (UniProt Q8N2Z9)
inactive: [1] -0.054 | [2] 0.129 | [3] -0.036 | [4] -0.064 | entinostat 0.025 | vorinostat 0.031 | citarinostat 0.003 | silmitasertib -0.071 | [5] 0.008 | [6] 0.014

CEP131 (UniProt Q9UPN4)
inactive: [1] 0.375 | [2] -0.028 | [3] 0.117 | entinostat -0.033 | vorinostat 0.034 | silmitasertib -0.227 | [5] 0.176

CEP120 (UniProt Q8N960)
inactive: [1] -0.483 | [2] -0.082 | [3] -0.386 | [4] -0.025 | entinostat 0.094 | silmitasertib -0.008 | [5] -0.162

CEP152 (UniProt O94986)
inactive: [1] -0.333 | [3] -0.211 | [4] -0.129 | entinostat -0.262 | vorinostat -0.077 | citarinostat -0.044 | silmitasertib -0.02 | [6] 0.083

CEBPZ (UniProt Q03701)
inactive: [1] -0.203 | [3] 0.331 | [4] -0.264 | entinostat -0.008 | vorinostat 0.185 | silmitasertib -0.125

CDKAL1 (UniProt Q5VV42)
inactive: [1] -0.017 | [2] -0.071 | [3] 0 | [4] -0.089 | entinostat -0.024 | vorinostat -0.112 | citarinostat 0.043 | silmitasertib 0.014 | [5] 0.077 | [6] -0.051

CEND1 (UniProt Q8N111)
inactive: [1] -0.122 | [2] -0.068 | entinostat 0.102

CHID1 (UniProt Q9BWS9)
inactive: [1] 0.049 | [2] -0.013 | [3] -0.064 | [4] 0.05 | entinostat 0.011 | vorinostat -0.016 | citarinostat 0.068 | silmitasertib 0.001 | [5] -0.008 | [6] 0.001

CDCA2 (UniProt Q69YH5)
inactive: [1] -0.034 | [2] -0.096 | [3] -0.003 | [4] 0.037 | entinostat -0.11 | vorinostat 0 | citarinostat -0.27 | silmitasertib 0.133 | [5] 0.035 | [6] 0.243

CENPE (UniProt Q02224)
inactive: [1] 0.127 | [2] 0.731 | [4] 0.114 | entinostat -0.153 | vorinostat -0.238

CFAP97 (UniProt Q9P2B7)
inactive: [1] 0.048 | [2] 0.094 | [4] 0.126 | entinostat -0.039 | vorinostat 0.09 | [5] 0.046

CDH5 (UniProt P33151)
inactive: [1] -0.052 | [3] 0.171 | entinostat -0.056 | citarinostat -0.103 | silmitasertib -0.062 | [5] 0.191 | [6] 0.213

CDC7 (UniProt O00311)
inactive: [4] 1.36

CEBPB (UniProt P17676)
inactive: [2] -0.158 | [3] 0.028 | vorinostat -0.345 | citarinostat -0.092 | silmitasertib 0.042 | [5] 0.159 | [6] -0.056

CDC42EP3 (UniProt Q9UKI2)
inactive: [3] -0.104 | silmitasertib 0.025 | [5] -0.01
